In the supplement of paper PMC6078165:
± gives the standard deviation of the averaged measurements. Values are relative to the signal before dosing, not to a vehicle control; the signal also falls without drug.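 Fibroblast labels denote human fibroblasts, mainly primary ones from uterus (C12385, HUF), lung (H6013), bone (Hs27A), adrenal (HADF) and skin (WS1), plus mammary HMF and breast cancer-associated Hs343T. Cancer cells are basal-like or mesenchymal-like triple-negative breast cancer lines. A hit is a response shift exceeding 3x replicate standard deviation. The tissue of the other fibroblasts is not given here.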

Tested on: MDAMB436
Test: relative JC-1 red fluorescence (viability) vs pre-drug, coculture with fibroblast (fraction); higher = more viable cancer cells
Method: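 JC-1 labelled TNBC cells cocultured 1:1 (1,500 cells each) with CellTrace Violet stained primary or stromal fibroblasts in 384-well plates in FluoroBrite medium, treated with one of 42 anticancer drugs at 0.1, 1, 10 or 100 uM. JC-1 red fluorescence (mitochondrial integrity in cancer cells only) was read by plate reader every 8 h for 72 h. Values are normalised to each well's pre-drug value. The stock of one drug was tenfold lower, so its dose labels may be too high.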

CC[C@]1(O)C[C@H]2CN(CCc3c([nH]c4ccccc34)[C@@](C(=O)OC)(c3cc4c(cc3OC)N(C=O)[C@H]3[C@@](O)(C(=O)OC)[C@H](OC(C)=O)[C@]5(CC)C=CCN6CC[C@]43[C@@H]65)C2)C1 [Vincristine]
relative JC-1 red fluorescence
Settings | 8 h | 16 h | 24 h | 32 h | 40 h | 48 h | 56 h | 64 h | 72 h
10 µM, coculture fibroblast: C12385 | 0.79682 ± 0.00049 | 0.7746 ± 0.0043 | 0.7684 ± 0.0057 | 0.703 ± 0.0078 | 0.672 ± 0.015 | 0.643 ± 0.016 | 0.615 ± 0.019 | 0.598 ± 0.017 | 0.593 ± 0.023
10 µM, coculture fibroblast: H6013 | 0.8167 ± 0.0076 | 0.7983 ± 0.0063 | 0.8022 ± 0.0052 | 0.817 ± 0.011 | 0.808 ± 0.011 | 0.859 ± 0.03 | 0.84 ± 0.028 | 0.845 ± 0.021 | 0.825 ± 0.029
10 µM, coculture fibroblast: H6019 | 0.793 ± 0.008 | 0.7719 ± 0.0017 | 0.8001 ± 0.0055 | 0.769 ± 0.014 | 0.771 ± 0.014 | 0.783 ± 0.014 | 0.778 ± 0.017 | 0.788 ± 0.011 | 0.798 ± 0.019
10 µM, coculture fibroblast: H6076 | 0.714 ± 0.026 | 0.6774 ± 0.0034 | 0.68 ± 0.016 | 0.654 ± 0.013 | 0.653 ± 0.015 | 0.636 ± 0.022 | 0.663 ± 0.011 | 0.664 ± 0.0097 | 0.6718 ± 0.0058
10 µM, coculture fibroblast: H6231 | 0.744 ± 0.021 | 0.625 ± 0.01 | 0.649 ± 0.0035 | 0.5647 ± 0.0015 | 0.55354 ± 0.00044 | 0.517 ± 0.01 | 0.515 ± 0.0069 | 0.5038 ± 0.0023 | 0.496 ± 0.0068
10 µM, coculture fibroblast: HADF | 0.811 ± 0.023 | 0.8088 ± 0.004 | 0.796 ± 0.028 | 0.774 ± 0.049 | 0.765 ± 0.07 | 0.786 ± 0.084 | 0.721 ± 0.11 | 0.71 ± 0.13 | 0.671 ± 0.12
10 µM, coculture fibroblast: HCFa | 0.802 ± 0.016 | 0.791 ± 0.022 | 0.773 ± 0.029 | 0.771 ± 0.052 | 0.777 ± 0.072 | 0.815 ± 0.084 | 0.761 ± 0.095 | 0.77 ± 0.11 | 0.729 ± 0.12
10 µM, coculture fibroblast: HCPF | 0.702 ± 0.043 | 0.658 ± 0.039 | 0.653 ± 0.044 | 0.59 ± 0.033 | 0.585 ± 0.023 | 0.552 ± 0.019 | 0.538 ± 0.011 | 0.5195 ± 0.0037 | 0.515 ± 0.0073
10 µM, coculture fibroblast: HHSteC | 0.825 ± 0.0049 | 0.826 ± 0.014 | 0.814 ± 0.019 | 0.796 ± 0.025 | 0.812 ± 0.033 | 0.844 ± 0.049 | 0.784 ± 0.047 | 0.78 ± 0.047 | 0.749 ± 0.043
10 µM, coculture fibroblast: HMF | 0.674 ± 0.057 | 0.64 ± 0.039 | 0.636 ± 0.035 | 0.597 ± 0.027 | 0.59 ± 0.011 | 0.557 ± 0.0076 | 0.558 ± 0.0059 | 0.55 ± 0.011 | 0.551 ± 0.00084
10 µM, coculture fibroblast: HPFa | 0.916 ± 0.056 | 0.867 ± 0.023 | 0.86 ± 0.021 | 0.824 ± 0.042 | 0.831 ± 0.046 | 0.849 ± 0.05 | 0.783 ± 0.054 | 0.769 ± 0.048 | 0.728 ± 0.049
10 µM, coculture fibroblast: HUF | 0.854 ± 0.011 | 0.809 ± 0.022 | 0.804 ± 0.042 | 0.742 ± 0.057 | 0.691 ± 0.069 | 0.663 ± 0.079 | 0.638 ± 0.085 | 0.639 ± 0.097 | 0.631 ± 0.11
10 µM, coculture fibroblast: Hs5 | 0.778 ± 0.038 | 0.743 ± 0.03 | 0.729 ± 0.01 | 0.671 ± 0.0084 | 0.6472 ± 0.0039 | 0.6061 ± 0.005 | 0.604 ± 0.034 | 0.57 ± 0.043 | 0.576 ± 0.045
10 µM, coculture fibroblast: Hs27A | 0.8715 ± 0.0085 | 0.831 ± 0.031 | 0.837 ± 0.049 | 0.839 ± 0.071 | 0.833 ± 0.088 | 0.915 ± 0.11 | 0.832 ± 0.11 | 0.831 ± 0.11 | 0.765 ± 0.11
10 µM, coculture fibroblast: Hs343T | 0.721 ± 0.033 | 0.675 ± 0.024 | 0.644 ± 0.026 | 0.608 ± 0.024 | 0.585 ± 0.025 | 0.536 ± 0.024 | 0.542 ± 0.011 | 0.533 ± 0.011 | 0.5411 ± 0.0017
10 µM, coculture fibroblast: WS1 | 0.816 ± 0.014 | 0.768 ± 0.016 | 0.75 ± 0.021 | 0.673 ± 0.025 | 0.642 ± 0.016 | 0.618 ± 0.014 | 0.592 ± 0.019 | 0.566 ± 0.014 | 0.561 ± 0.013
100 µM, coculture fibroblast: C12385 | 0.8441 ± 0.0072 | 0.8187 ± 0.0071 | 0.8312 ± 0.0041 | 0.785 ± 0.014 | 0.765 ± 0.011 | 0.7605 ± 0.0071 | 0.738 ± 0.01 | 0.719 ± 0.0089 | 0.718 ± 0.018
100 µM, coculture fibroblast: H6013 | 0.882 ± 0.0093 | 0.8564 ± 0.0029 | 0.84 ± 0.03 | 0.866 ± 0.033 | 0.865 ± 0.023 | 0.897 ± 0.019 | 0.8772 ± 0.0015 | 0.866 ± 0.014 | 0.841 ± 0.003
100 µM, coculture fibroblast: H6019 | 0.84 ± 0.012 | 0.825 ± 0.018 | 0.8362 ± 0.0075 | 0.822 ± 0.021 | 0.83 ± 0.027 | 0.84 ± 0.039 | 0.827 ± 0.042 | 0.824 ± 0.052 | 0.823 ± 0.056
100 µM, coculture fibroblast: H6076 | 0.792 ± 0.011 | 0.737 ± 0.02 | 0.712 ± 0.011 | 0.6977 ± 0.0037 | 0.676 ± 0.0086 | 0.6504 ± 0.0019 | 0.666 ± 0.0083 | 0.6699 ± 0.0022 | 0.673 ± 0.0093
100 µM, coculture fibroblast: H6231 | 0.822 ± 0.021 | 0.774 ± 0.019 | 0.745 ± 0.017 | 0.716 ± 0.031 | 0.681 ± 0.044 | 0.645 ± 0.043 | 0.622 ± 0.029 | 0.598 ± 0.036 | 0.58 ± 0.023
100 µM, coculture fibroblast: HADF | 0.8673 ± 0.0056 | 0.8522 ± 0.0073 | 0.86386 ± 0.00023 | 0.8677 ± 0.0064 | 0.8647 ± 0.0049 | 0.873 ± 0.0092 | 0.835 ± 0.029 | 0.826 ± 0.021 | 0.784 ± 0.038
100 µM, coculture fibroblast: HCFa | 0.8512 ± 0.0012 | 0.8434 ± 0.0048 | 0.8333 ± 0.0065 | 0.835 ± 0.011 | 0.8336 ± 0.0028 | 0.864 ± 0.015 | 0.818 ± 0.024 | 0.836 ± 0.018 | 0.786 ± 0.016
100 µM, coculture fibroblast: HCPF | 0.8202 ± 0.0018 | 0.7868 ± 0.0057 | 0.771 ± 0.021 | 0.725 ± 0.014 | 0.701 ± 0.015 | 0.676 ± 0.018 | 0.645 ± 0.026 | 0.63 ± 0.015 | 0.624 ± 0.0018
100 µM, coculture fibroblast: HHSteC | 0.8831 ± 0.0013 | 0.8806 ± 0.0043 | 0.8644 ± 0.00098 | 0.8618 ± 0.0085 | 0.868 ± 0.014 | 0.896 ± 0.029 | 0.834 ± 0.022 | 0.832 ± 0.034 | 0.792 ± 0.035
100 µM, coculture fibroblast: HMF | 0.862 ± 0.052 | 0.846 ± 0.079 | 0.832 ± 0.092 | 0.8 ± 0.084 | 0.786 ± 0.085 | 0.752 ± 0.1 | 0.731 ± 0.067 | 0.702 ± 0.053 | 0.684 ± 0.051
100 µM, coculture fibroblast: HPFa | 0.946 ± 0.014 | 0.9433 ± 0.0044 | 0.94837 ± 5.2e-05 | 0.9425 ± 0.0082 | 0.959 ± 0.018 | 0.832 ± 0.19 | 0.931 ± 0.042 | 0.927 ± 0.032 | 0.879 ± 0.036
100 µM, coculture fibroblast: HUF | 0.9044 ± 0.0025 | 0.8635 ± 0.0075 | 0.8908 ± 0.0065 | 0.85055 ± 3.7e-05 | 0.8207 ± 0.0022 | 0.814 ± 0.0016 | 0.7884 ± 0.0017 | 0.7905 ± 0.0018 | 0.79962 ± 0.00033
100 µM, coculture fibroblast: Hs5 | 0.826 ± 0.021 | 0.793 ± 0.029 | 0.786 ± 0.021 | 0.73 ± 0.015 | 0.715 ± 0.016 | 0.674 ± 0.0086 | 0.6715 ± 0.0045 | 0.6432 ± 0.0037 | 0.6326 ± 0.0014
100 µM, coculture fibroblast: Hs27A | 0.864 ± 0.0099 | 0.8369 ± 0.0061 | 0.8304 ± 0.0024 | 0.825 ± 0.0032 | 0.822 ± 0.0095 | 0.866 ± 0.021 | 0.801 ± 0.024 | 0.797 ± 0.027 | 0.742 ± 0.033
100 µM, coculture fibroblast: Hs343T | 0.85968 ± 0.00041 | 0.8075 ± 0.0043 | 0.7858 ± 0.0036 | 0.7451 ± 0.0069 | 0.713 ± 0.0017 | 0.6747 ± 0.00097 | 0.6492 ± 0.0012 | 0.632 ± 0.0077 | 0.629 ± 0.011
100 µM, coculture fibroblast: WS1 | 0.8433 ± 0.0023 | 0.8037 ± 0.0043 | 0.808 ± 0.011 | 0.753 ± 0.012 | 0.736 ± 0.017 | 0.735 ± 0.015 | 0.715 ± 0.015 | 0.693 ± 0.013 | 0.681 ± 0.0083
